PubChem BioAssay AID652259 – Drosophila RNAi Screening Center | 2013
Aim: 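Genome-wide hunt for genes that control Wingless pathway activity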 (primary screen). Cells: Drosophila clone 8 imaginal disc epithelial cells. Knock-down reagent: long dsRNA against Drosophila genes. Challenge: pathway stimulated by co-transfected Wingless expression plasmid. Measurement: 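Firefly luciferase from a tcf-site Wingless reporter, measured alongside co-transfected Renilla luciferase that tracks transfection; pathway stimulated by a Wingless plasmid; the firefly-to-Renilla ratio is not deposited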. Scale: firefly reporter light: higher = more Wg reporter light, before normalisation; Renilla control light: higher = more transfected or surviving cells. Active means: 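Strong candidates differ from their plate mean by at least two out of four per-plate statistical tests; weak candidates meet just one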. Calls: active = candidate regulator (raises or lowers reporter); inactive = not a candidate.
The deposit covers about 22,000 reagents; below is an unselected part of those with a known target gene and a result. Over the whole deposit, 233 (1.1%) got an active call. 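Light values are raw, unnormalised plate reads; the ratio scores behind the reporter calls were not deposited.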 A plus sign joins genes that one reagent is predicted to hit. Not stated in the record: the amount of reagent, the time to read-out, the dose of the treatment.

Target gene	dsRNA	reporter change call, replicate 1	firefly reporter light, replicate 1	firefly reporter light, replicate 2	Renilla control light, replicate 1	Renilla control light, replicate 2	outcome
SdhA (GeneID 37228)	DRSC07547		7848		2592		inactive
CG11123 (GeneID 35664)	DRSC06040		4123	14179	816	1312	inactive
CG6550 (GeneID 36954)	DRSC07001		15701		1687		inactive
CG42729 (GeneID 3885667)	DRSC10236		5232		2725		inactive
CG11041 (GeneID 37278)	DRSC06025		5440		2213		inactive
Cth (GeneID 37143)	DRSC07422		17699		5927		inactive
Or47b (GeneID 36212)	DRSC07492		5410		2291		inactive
mRpL48 (GeneID 33348)	DRSC00506		4080	12330	1028	3219	inactive
CG13481 (GeneID 39579)	DRSC10023		4426		1680		inactive
Orp8 (GeneID 42412)	DRSC15110		35952		6137		inactive
Orp8 (GeneID 42412)	DRSC15712		2506	4112	948	1400	inactive
CG43288 (GeneID 12798106)	DRSC17314		3109		1430		inactive
CG30076 (GeneID 246438)	DRSC05494		17378		14899		inactive
CG15459 (GeneID 33036)	DRSC20530		19045		10165		inactive
CG15459 (GeneID 33036)	DRSC21383		3.95e5	4.35e5	1.54e5	1.38e5	inactive
eIF2gamma + Su(var)3-9	DRSC13081		4502		1265		inactive
eIF2gamma + Su(var)3-9	DRSC16873		8204		2549		inactive
sage (GeneID 41105)	DRSC14580		3799		1394		inactive
CG5199 (GeneID 40265)	DRSC11770		15100		4336		inactive
ImpE1 (GeneID 45879)	DRSC11195		2153	8791	1532	3972	inactive
ImpE1 (GeneID 45879)	DRSC11196		1494	7884	1013	2818	inactive
BomS3 (GeneID 50209)	DRSC21458		4.15e5	4.53e5	2.17e5	1.58e5	inactive
gudu (GeneID 34014)	DRSC02820		2981	7539	842	3008	inactive
CG14834 (GeneID 38814)	DRSC10204		1398	3963	962	2151	inactive
CG11593 (GeneID 38477)	DRSC08206		3914		1907		inactive
CG31560 (GeneID 40772)	DRSC12136		9004		2246		inactive
CG5890 (GeneID 43126)	DRSC15909		12089		11856		inactive
CG13962 (GeneID 35270)	DRSC02304		3173	8233	643	2901	inactive
GAPsec (GeneID 38987)	DRSC10564		3419		1490		inactive
CG43062 (GeneID 12797888)	DRSC12866		3888		1280		inactive
ppk15 (GeneID 43188)	DRSC14733		14258		16541		inactive
ppk23 (GeneID 32731)	DRSC20110		19315		8208		inactive
lectin-46Ca (GeneID 53523)	DRSC06612		14768		4684		inactive
ND-13B (GeneID 39214)	DRSC10643		7323		2252		inactive
CG18754 (GeneID 59145)	DRSC15387		13357		5821		inactive
CG11309 (GeneID 40356)	DRSC11650		4386		1312		inactive
Mgat4b (GeneID 39609)	DRSC10256		7337		2439		inactive
NijA (GeneID 39215)	DRSC10637		9187		2688		inactive
CG17896 (GeneID 30995)	DRSC18502		1862	5669	950	2432	inactive
MED27 (GeneID 40696)	DRSC12205		11746		2020		inactive
CG30283 (GeneID 37454)	DRSC04071		1815	8261	793	2984	inactive
Orc6 (GeneID 36017)	DRSC07497		2801	9104	900	3025	inactive
CG11333 (GeneID 43714)	DRSC14301		16299		10529		inactive
CG7943 (GeneID 43574)	DRSC16351		3312	5961	1184	2027	inactive
Crag (GeneID 31800)	DRSC18454		2019	8582	802	2075	inactive
Slh (GeneID 33434)	DRSC00407		3136	5482	1404	2554	inactive
Slh (GeneID 33434)	DRSC00789		4269	10096	952	2370	inactive
CG13868 (GeneID 37302)	DRSC06427		7520		2267		inactive
SerRS-m (GeneID 41862)	DRSC14096		18505		3744		inactive
CG9517 (retired record) (GeneID 32417)	DRSC20192		24962		10520		inactive
CG9517 (retired record) (GeneID 32417)	DRSC20193		19782		7076		inactive
danr (GeneID 43020)	DRSC14651		19762		14348		inactive
Cpr76Bc (GeneID 40122)	DRSC11062		21881		7541		inactive
l(2)37Cd (GeneID 35193)	DRSC02069		9190		2631		inactive
CG8620 (GeneID 50310)	DRSC11020		2250	8800	1097	2967	inactive
CG30419 (GeneID 37879)	DRSC04208		2952	9728	962	3562	inactive
CG30419 (GeneID 37879)	DRSC04209		4868	8676	1143	3541	inactive
CG30419 (GeneID 37879)	DRSC22519		9.57e5	9.33e5	4.38e5	4.12e5	inactive
ana3 (GeneID 36341)	DRSC06289		4947		2249		inactive
CG6209 (GeneID 36517)	DRSC06968		9344		3233		inactive
htl (GeneID 42160)	DRSC16968		2680	6432	1099	1623	inactive
CG3342 (GeneID 31586)	DRSC18304		2586	5226	752	1973	inactive
hbt (GeneID 34738)	DRSC01310		10291		6048		inactive
hbt (GeneID 34738)	DRSC02549		3187	4537	1235	2953	inactive
Dim1 (GeneID 33645)	DRSC00563		1842	3706	509	1625	inactive
CG33170 (GeneID 326267)	DRSC11854		17216		5568		inactive
CG33170 (GeneID 326267)	DRSC22366		5.50e5	6.08e5	2.34e5	2.24e5	inactive
CG11110 (GeneID 37337)	DRSC06037		3357		2242		inactive
CG17059 (GeneID 50227)	DRSC06654		7187		3108		inactive
grim (GeneID 40014)	DRSC11352	Wg reporter activity raised	9920		1081		active
Sec31 (GeneID 35877)	DRSC07131		6026		2068		inactive
CG30184 (GeneID 246506)	DRSC22277		7.24e5	7.47e5	3.24e5	3.52e5	inactive
eIF2D (GeneID 64874)	DRSC13916		3400		1842		inactive
CG11583 (GeneID 326206)	DRSC08202		9143		3212		inactive
Arms (GeneID 37433)	DRSC03856		4024	25616	1616	13210	inactive
Arms (GeneID 37433)	DRSC03857		16328		8131		inactive
Arms (GeneID 37433)	DRSC04052		11200		2708		inactive
Arms (GeneID 37433)	DRSC04256		1731	3296	674	1817	inactive
CG15199 (GeneID 32051)	DRSC19646		16545		7033		inactive
Pgk (GeneID 33461)	DRSC00769		5691	9580	1414	3056	inactive
Sirt1 (GeneID 34708)	DRSC03435		6649		1680		inactive
SLIRP1 + anox	DRSC20542		4171	8224	1297	3381	inactive
CG7744 (GeneID 37239)	DRSC07036		8935		3280		inactive
vri (GeneID 33759)	DRSC03633		4658	7233	516	875	inactive
CG5902 (GeneID 42839)	DRSC15912		4032	4586	601	1717	inactive
CG4483 (GeneID 39057)	DRSC10426		3744		899		inactive
ClpP (GeneID 34402)	DRSC02806		7761		2843		inactive
Tango2 (GeneID 32319)	DRSC19394		3155	5592	1074	2260	inactive
Tango2 (GeneID 32319)	DRSC21526		5.83e5	5.30e5	2.37e5	1.81e5	inactive
Polr3G (GeneID 39941)	DRSC21511		4.48e5	5.52e5	2.29e5	1.76e5	inactive
MFS16 (GeneID 37427)	DRSC04051		3525	7548	832	3069	inactive
alpha-Est6 (GeneID 40902)	DRSC12618		3648		832		inactive
CG34384 (GeneID 5740362)	DRSC12642		4242		1792		inactive
CG34384 (GeneID 5740362)	DRSC12644		4786		2032		inactive
CG34384 (GeneID 5740362)	DRSC14855		16624		3576		inactive
CG34384 (GeneID 5740362)	DRSC15444		21929		6485		inactive
CG34384 (GeneID 5740362)	DRSC16575		15977		4729		inactive

Entries listed so far whose gene name starts with A or a (6):
Target gene	dsRNA	reporter change call, replicate 1	firefly reporter light, replicate 1	firefly reporter light, replicate 2	Renilla control light, replicate 1	Renilla control light, replicate 2	outcome
ana3 (GeneID 36341)	DRSC06289		4947		2249		inactive
Arms (GeneID 37433)	DRSC03856		4024	25616	1616	13210	inactive
Arms (GeneID 37433)	DRSC03857		16328		8131		inactive
Arms (GeneID 37433)	DRSC04052		11200		2708		inactive
Arms (GeneID 37433)	DRSC04256		1731	3296	674	1817	inactive
alpha-Est6 (GeneID 40902)	DRSC12618		3648		832		inactive
